Reference: the supplement of paper PMC10849652
The list shows a part of the results.

Amino acid sequences for entries named in this document (tags omitted). A change or cut given only in a name is not applied to a line headed by its entry.
UniProt Q8NB46: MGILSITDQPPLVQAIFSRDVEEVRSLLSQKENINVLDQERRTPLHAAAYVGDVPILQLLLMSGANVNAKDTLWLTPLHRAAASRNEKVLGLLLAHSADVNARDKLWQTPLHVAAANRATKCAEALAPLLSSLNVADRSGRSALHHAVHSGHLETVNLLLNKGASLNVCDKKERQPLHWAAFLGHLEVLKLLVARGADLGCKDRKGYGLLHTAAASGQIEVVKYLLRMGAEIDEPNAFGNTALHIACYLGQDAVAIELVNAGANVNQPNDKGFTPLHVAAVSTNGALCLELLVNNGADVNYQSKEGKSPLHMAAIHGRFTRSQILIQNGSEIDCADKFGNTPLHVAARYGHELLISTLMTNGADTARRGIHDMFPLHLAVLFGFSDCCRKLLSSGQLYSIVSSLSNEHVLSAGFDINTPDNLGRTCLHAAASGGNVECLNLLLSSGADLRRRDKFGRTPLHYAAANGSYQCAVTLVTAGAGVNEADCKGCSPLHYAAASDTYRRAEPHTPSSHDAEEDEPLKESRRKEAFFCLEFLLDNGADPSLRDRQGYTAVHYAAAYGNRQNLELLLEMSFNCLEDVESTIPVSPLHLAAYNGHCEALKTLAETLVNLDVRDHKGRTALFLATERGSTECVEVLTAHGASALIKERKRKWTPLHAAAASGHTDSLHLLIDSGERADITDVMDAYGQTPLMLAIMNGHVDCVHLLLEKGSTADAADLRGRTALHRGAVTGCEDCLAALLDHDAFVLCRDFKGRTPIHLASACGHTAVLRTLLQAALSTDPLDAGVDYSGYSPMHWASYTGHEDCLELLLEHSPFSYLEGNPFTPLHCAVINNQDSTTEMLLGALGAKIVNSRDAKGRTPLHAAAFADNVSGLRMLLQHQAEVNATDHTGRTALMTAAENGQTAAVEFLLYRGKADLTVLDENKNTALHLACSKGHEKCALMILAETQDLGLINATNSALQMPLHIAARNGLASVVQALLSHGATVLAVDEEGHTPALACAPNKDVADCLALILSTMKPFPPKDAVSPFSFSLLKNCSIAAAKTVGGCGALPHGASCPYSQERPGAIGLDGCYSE
UniProt Q96AK3: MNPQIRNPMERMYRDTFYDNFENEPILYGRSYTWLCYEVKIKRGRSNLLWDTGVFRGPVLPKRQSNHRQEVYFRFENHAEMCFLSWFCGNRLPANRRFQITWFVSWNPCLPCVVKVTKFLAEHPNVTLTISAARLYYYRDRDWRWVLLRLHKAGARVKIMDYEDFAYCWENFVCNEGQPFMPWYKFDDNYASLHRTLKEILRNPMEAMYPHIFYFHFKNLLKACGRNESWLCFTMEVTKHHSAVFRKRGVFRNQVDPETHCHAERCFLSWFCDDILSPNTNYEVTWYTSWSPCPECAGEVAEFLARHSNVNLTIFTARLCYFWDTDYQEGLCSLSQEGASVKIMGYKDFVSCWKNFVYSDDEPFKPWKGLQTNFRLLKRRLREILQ
UniProt P53680: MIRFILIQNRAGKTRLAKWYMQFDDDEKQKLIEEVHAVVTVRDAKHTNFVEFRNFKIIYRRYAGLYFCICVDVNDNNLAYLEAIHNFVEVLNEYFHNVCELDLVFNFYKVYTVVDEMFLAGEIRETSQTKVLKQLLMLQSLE
UniProt P04114: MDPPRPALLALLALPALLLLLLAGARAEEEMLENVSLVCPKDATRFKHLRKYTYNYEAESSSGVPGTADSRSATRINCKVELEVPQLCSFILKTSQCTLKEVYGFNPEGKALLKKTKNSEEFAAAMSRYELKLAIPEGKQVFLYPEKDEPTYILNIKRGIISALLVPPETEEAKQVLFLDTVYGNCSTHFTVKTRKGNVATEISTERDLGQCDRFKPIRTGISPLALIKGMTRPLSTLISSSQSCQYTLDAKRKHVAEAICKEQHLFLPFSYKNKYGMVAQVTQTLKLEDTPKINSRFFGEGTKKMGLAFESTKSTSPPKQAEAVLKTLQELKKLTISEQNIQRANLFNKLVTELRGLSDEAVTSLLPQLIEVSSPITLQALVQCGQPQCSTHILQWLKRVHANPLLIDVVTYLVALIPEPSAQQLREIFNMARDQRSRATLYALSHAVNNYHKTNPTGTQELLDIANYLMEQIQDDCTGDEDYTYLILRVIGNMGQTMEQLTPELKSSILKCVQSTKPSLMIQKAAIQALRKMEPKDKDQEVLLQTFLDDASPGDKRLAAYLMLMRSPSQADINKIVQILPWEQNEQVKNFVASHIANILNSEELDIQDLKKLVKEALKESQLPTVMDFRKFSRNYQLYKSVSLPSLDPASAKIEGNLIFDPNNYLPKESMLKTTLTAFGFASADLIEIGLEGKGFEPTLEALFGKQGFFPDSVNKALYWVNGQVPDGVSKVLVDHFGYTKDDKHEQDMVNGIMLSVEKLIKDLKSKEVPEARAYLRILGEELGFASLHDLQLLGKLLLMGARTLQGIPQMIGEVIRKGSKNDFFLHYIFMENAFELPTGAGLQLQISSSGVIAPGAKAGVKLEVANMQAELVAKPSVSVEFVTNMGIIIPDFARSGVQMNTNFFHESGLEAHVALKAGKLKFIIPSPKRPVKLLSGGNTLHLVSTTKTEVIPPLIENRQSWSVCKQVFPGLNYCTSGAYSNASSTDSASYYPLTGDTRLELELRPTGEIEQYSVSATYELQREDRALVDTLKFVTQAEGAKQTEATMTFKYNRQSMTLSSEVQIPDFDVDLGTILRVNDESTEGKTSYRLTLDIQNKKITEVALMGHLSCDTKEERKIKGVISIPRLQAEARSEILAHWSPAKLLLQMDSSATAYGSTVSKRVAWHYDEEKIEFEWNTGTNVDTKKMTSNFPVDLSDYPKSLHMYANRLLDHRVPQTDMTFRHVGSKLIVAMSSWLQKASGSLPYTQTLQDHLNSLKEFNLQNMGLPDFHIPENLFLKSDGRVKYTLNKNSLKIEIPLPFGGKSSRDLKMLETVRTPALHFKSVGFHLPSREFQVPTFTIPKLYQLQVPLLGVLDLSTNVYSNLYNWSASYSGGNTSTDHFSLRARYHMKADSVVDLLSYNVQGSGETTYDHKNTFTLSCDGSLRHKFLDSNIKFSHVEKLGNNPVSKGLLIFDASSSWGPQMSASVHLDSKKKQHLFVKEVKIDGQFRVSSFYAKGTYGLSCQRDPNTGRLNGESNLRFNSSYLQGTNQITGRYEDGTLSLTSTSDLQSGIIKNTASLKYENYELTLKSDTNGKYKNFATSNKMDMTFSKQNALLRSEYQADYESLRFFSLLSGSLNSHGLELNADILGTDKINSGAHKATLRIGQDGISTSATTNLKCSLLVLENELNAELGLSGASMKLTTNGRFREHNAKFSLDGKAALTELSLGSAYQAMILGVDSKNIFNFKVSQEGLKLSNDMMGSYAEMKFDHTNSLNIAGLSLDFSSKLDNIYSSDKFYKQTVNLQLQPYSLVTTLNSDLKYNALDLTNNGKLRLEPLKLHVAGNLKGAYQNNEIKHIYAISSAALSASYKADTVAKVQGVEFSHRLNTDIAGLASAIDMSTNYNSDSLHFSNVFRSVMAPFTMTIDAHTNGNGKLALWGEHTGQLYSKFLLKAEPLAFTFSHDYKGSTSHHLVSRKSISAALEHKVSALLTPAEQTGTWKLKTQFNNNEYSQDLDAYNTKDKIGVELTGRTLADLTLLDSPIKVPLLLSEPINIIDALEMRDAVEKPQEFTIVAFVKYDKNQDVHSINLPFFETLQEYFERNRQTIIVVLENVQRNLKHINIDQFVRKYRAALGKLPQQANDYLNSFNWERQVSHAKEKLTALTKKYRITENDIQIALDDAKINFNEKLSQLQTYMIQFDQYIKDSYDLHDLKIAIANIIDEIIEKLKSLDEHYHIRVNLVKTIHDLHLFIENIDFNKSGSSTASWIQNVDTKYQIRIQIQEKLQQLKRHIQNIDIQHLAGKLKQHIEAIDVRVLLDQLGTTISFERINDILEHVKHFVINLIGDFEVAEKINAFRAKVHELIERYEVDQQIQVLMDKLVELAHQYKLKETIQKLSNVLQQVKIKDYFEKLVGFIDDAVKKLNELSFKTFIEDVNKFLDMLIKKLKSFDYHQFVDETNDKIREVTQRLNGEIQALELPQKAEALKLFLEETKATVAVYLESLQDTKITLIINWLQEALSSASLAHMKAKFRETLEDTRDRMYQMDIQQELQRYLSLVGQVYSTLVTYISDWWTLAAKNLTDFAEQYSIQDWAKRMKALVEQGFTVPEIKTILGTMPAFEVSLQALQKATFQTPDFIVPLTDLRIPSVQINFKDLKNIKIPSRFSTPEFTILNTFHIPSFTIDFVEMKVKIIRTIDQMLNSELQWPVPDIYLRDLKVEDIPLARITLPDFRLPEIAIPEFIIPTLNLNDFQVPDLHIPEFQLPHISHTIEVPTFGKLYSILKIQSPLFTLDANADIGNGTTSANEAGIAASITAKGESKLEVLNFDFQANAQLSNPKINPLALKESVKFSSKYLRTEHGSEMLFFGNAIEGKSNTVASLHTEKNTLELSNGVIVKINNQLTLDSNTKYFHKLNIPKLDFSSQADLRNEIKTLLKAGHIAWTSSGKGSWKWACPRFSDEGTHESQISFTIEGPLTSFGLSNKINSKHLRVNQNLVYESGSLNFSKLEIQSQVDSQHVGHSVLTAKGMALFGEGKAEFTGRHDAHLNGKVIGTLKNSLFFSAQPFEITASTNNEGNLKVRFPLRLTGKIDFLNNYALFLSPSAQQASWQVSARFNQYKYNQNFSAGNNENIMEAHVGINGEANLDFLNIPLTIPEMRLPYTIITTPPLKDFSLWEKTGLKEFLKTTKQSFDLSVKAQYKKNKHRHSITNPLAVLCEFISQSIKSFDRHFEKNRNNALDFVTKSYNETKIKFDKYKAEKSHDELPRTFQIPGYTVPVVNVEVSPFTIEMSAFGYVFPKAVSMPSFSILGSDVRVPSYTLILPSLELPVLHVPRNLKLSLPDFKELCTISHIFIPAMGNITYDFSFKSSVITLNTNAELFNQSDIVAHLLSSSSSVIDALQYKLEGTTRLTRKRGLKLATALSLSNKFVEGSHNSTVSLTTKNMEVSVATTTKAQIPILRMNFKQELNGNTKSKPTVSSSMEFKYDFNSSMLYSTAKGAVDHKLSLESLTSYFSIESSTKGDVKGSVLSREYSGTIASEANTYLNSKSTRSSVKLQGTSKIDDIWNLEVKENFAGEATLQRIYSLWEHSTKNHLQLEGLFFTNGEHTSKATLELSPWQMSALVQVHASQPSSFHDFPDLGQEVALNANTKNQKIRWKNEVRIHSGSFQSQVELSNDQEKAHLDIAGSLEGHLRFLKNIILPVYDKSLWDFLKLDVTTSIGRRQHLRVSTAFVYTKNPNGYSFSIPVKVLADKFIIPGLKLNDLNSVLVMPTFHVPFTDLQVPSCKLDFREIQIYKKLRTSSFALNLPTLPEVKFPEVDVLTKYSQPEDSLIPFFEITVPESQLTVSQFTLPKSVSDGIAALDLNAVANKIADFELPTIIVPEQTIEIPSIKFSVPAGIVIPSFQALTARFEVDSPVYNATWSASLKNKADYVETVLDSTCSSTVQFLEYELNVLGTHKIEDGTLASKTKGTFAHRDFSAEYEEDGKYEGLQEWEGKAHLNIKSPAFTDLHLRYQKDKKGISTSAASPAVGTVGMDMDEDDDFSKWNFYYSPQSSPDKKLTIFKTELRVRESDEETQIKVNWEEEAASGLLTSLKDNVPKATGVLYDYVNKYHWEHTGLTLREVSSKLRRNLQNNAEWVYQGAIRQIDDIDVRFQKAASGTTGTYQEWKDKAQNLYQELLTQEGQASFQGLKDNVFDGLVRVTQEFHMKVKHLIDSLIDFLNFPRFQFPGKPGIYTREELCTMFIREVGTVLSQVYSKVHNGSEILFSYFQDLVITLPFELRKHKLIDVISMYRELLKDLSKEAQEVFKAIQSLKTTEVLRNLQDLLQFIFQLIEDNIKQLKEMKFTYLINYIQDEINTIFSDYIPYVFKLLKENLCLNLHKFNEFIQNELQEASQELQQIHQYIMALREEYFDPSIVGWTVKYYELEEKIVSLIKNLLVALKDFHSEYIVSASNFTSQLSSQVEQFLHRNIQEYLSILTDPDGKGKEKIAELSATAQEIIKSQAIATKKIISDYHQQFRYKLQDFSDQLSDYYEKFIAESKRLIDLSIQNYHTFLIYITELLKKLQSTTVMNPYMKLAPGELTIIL
UniProt P02749: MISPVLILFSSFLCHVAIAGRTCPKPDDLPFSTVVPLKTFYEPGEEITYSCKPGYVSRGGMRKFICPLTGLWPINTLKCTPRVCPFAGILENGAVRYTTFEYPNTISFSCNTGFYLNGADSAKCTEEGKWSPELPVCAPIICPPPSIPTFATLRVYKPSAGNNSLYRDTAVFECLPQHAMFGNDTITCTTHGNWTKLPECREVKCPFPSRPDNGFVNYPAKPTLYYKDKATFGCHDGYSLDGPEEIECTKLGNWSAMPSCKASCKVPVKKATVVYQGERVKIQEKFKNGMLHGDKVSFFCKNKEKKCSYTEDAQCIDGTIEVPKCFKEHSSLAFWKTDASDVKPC

Assays:
Experiment in all cases: log2 fold change, soluble protein after heating vs DMSO (PISA); higher = thermal stabilisation; K562 cells, 10 uM, 30 min; active = over 0.2 and 3.5 SD of the protein, either way, in both replicates (recomputed)
[1] = compound: CC[C@@H]1C(=O)N(C)c2cnc(Nc3ccc(C(=O)NC4CCN(C)CC4)cc3OC)nc2N1C1CCCC1
Procedure, shortened: (§1)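 K562 cells at 2×10^6 cells/mL were treated for 30 min with 10 μM compound, and aliquots were heated for 3 min over 48°C-58°C before pooling. Extraction used PBS with 0.5% NP-40 at 4°C, and soluble protein was the supernatant after 21,000xg for 90 min, measured by TMTpro 16plex LC-MS/MS with channel sums equalised. Thermal stability values, relative to control samples and from duplicates, are log2 fold changes.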

[2] = compound: CC[C@H](C)N1C=C(C2=C(C=C(C=C21)C3=CN=C(C=C3)N4CCNCC4)C(=O)NCC5=C(C=C(NC5=O)C)C)C
Procedure, shortened: as §1

epoxomicin = compound: CC[C@H](C)[C@@H](C(=O)N[C@@H]([C@@H](C)O)C(=O)N[C@@H](CC(C)C)C(=O)[C@]1(CO1)C)NC(=O)[C@H]([C@@H](C)CC)N(C)C(=O)C [epoxomicin]
Procedure, shortened: as §1

[3] = compound: CCn1c(C(=O)N(C2CC2)C2CC2)cc2c3c(ncn3C)c(Nc3cc(C)n(C)n3)nc21
Procedure, shortened: as §1

[4] = compound: CN(C)CC(=O)Nc1ccc2[nH]c(=O)c3ccccc3c2c1
Procedure, shortened: as §1

[5] = compound: CN1C2=C(C3=C1C(=O)N(N=C3)CC4=CC(=CC=C4)N)SC(=C2)S(=O)C
Procedure, shortened: as §1

saracatinib = compound: CN1CCN(CCOc2cc(OC3CCOCC3)c3c(Nc4c(Cl)ccc5c4OCO5)ncnc3c2)CC1 [saracatinib]
Procedure, shortened: as §1

alvocidib = compound: CN1CC[C@H](c2c(O)cc(O)c3c(=O)cc(-c4ccccc4Cl)oc23)[C@H](O)C1 [alvocidib]
Procedure, shortened: as §1

Tubastatin A = compound: CN1CCc2c(c3ccccc3n2Cc2ccc(C(=O)NO)cc2)C1 [Tubastatin A]
Procedure, shortened: as §1

[6] = compound: CNC(=O)C1=CC=CC=C1NC2=NC(=NC=C2Cl)NC3=C(C=C(C=C3)N4CCOCC4)OC
Procedure, shortened: as §1

defactinib = compound: CNC(=O)c1ccc(Nc2ncc(C(F)(F)F)c(NCc3nccnc3N(C)S(C)(=O)=O)n2)cc1 [defactinib]
Procedure, shortened: as §1

rucaparib = compound: CNCc1ccc(-c2[nH]c3cc(F)cc4c3c2CCNC4=O)cc1 [rucaparib]
Procedure, shortened: as §1

[7] = compound: CNc1nc(-c2ccc3c(N)n[nH]c3c2)cc(N2C[C@@H](C(=O)NC3CCCCC3)CC[C@H]2C)n1
Procedure, shortened: as §1

encorafenib = compound: COC(=O)N[C@@H](C)CNc1nccc(-c2cn(C(C)C)nc2-c2cc(Cl)cc(NS(C)(=O)=O)c2F)n1 [encorafenib]
Procedure, shortened: as §1

[8] = compound: COC(=O)[C@H](CCSC)NC(=O)C1=C(C=C(C=C1)NC[C@H](CS)N)C2=CC=CC=C2
Procedure, shortened: as §1

volasertib = compound: CC[C@@H]1C(=O)N(C)c2cnc(Nc3ccc(C(=O)N[C@H]4CC[C@H](N5CCN(CC6CC6)CC5)CC4)cc3OC)nc2N1C(C)C [volasertib]
Procedure, shortened: as §1

sotrastaurin = compound: CN1CCN(c2nc(C3=C(c4c[nH]c5ccccc45)C(=O)NC3=O)c3ccccc3n2)CC1 [sotrastaurin]
Procedure, shortened: as §1

[9] = compound: CCn1cc(-c2ccnc3[nH]c(-c4cccc(CN(C)C)c4)cc23)c(-c2ccc(NC(=O)N(C)C)cc2)n1
Procedure, shortened: as §1

rosiglitazone = compound: CN(CCOC1=CC=C(C=C1)C[C@H]2C(=O)NC(=O)S2)C3=CC=CC=N3 (racemic) [rosiglitazone]
Procedure, shortened: as §1

[10] = compound: CN1CCC(CNc2ccc3ncc(-c4cccc(OC(F)(F)F)c4)n3n2)CC1
Procedure, shortened: as §1

## ANKRD52 (UniProt Q8NB46)
[1]
  log2 fold change: inactive: -0.198
[2]
  log2 fold change: inactive: 0.135
epoxomicin
  log2 fold change: inactive: 0.096
[3]
  log2 fold change: inactive: -0.018
[4]
  log2 fold change: inactive: -0.181
[5]
  log2 fold change: inactive: -0.11
saracatinib
  log2 fold change: inactive: 0.767
alvocidib
  log2 fold change: inactive: 0.083
Tubastatin A
  log2 fold change: inactive: 0.04
[6]
  log2 fold change: inactive: 0.079
defactinib
  log2 fold change: inactive: -0.218
rucaparib
  log2 fold change: inactive: 0.152
[7]
  log2 fold change: inactive: -0.227
encorafenib
  log2 fold change: inactive: -0.082
[8]
  log2 fold change: inactive: -0.413

## APOBEC3G (UniProt Q9HC16)
[1]
  log2 fold change: inactive: 0.267
volasertib
  log2 fold change: inactive: -0.008
[2]
  log2 fold change: inactive: 0.051
epoxomicin
  log2 fold change: inactive: -0.146
[4]
  log2 fold change: inactive: -0.148
[5]
  log2 fold change: inactive: 0.025
saracatinib
  log2 fold change: inactive: 0.046
sotrastaurin
  log2 fold change: inactive: 0.023
Tubastatin A
  log2 fold change: inactive: -0.045
[6]
  log2 fold change: inactive: -0.093
defactinib
  log2 fold change: inactive: -0.097
rucaparib
  log2 fold change: inactive: 0.152
[7]
  log2 fold change: inactive: -0.121
encorafenib
  log2 fold change: inactive: -0.263
[8]
  log2 fold change: inactive: 0.038

## ANTKMT (UniProt Q9BQD7)
[1]
  log2 fold change: inactive: -0.294
[2]
  log2 fold change: inactive: 0.052
epoxomicin
  log2 fold change: inactive: -0.239
[3]
  log2 fold change: inactive: -0.087
[9]
  log2 fold change: inactive: -0.282
[4]
  log2 fold change: inactive: 0.211
rosiglitazone
  log2 fold change: inactive: -0.141
[5]
  log2 fold change: inactive: -0.079
[10]
  log2 fold change: inactive: 0.024
saracatinib
  log2 fold change: inactive: 0.016
sotrastaurin
  log2 fold change: inactive: 0.066
alvocidib
  log2 fold change: inactive: -0.037
Tubastatin A
  log2 fold change: inactive: -0.149
[6]
  log2 fold change: inactive: -0.158
defactinib
  log2 fold change: inactive: -0.164
rucaparib
  log2 fold change: inactive: 0.153
[7]
  log2 fold change: inactive: -0.004
encorafenib
  log2 fold change: inactive: -0.061
[8]
  log2 fold change: inactive: -0.016

## ARAP1 (UniProt Q96P48)
[1]
  log2 fold change: inactive: 0.107
volasertib
  log2 fold change: inactive: -0.32
[2]
  log2 fold change: inactive: -0.042
epoxomicin
  log2 fold change: inactive: -0.208
[9]
  log2 fold change: inactive: 0.118
rosiglitazone
  log2 fold change: inactive: -0.163
[5]
  log2 fold change: inactive: 0.21
[10]
  log2 fold change: inactive: -0.106
saracatinib
  log2 fold change: inactive: -0.521
sotrastaurin
  log2 fold change: inactive: -0.064
alvocidib
  log2 fold change: inactive: 0.026
Tubastatin A
  log2 fold change: inactive: -0.427
rucaparib
  log2 fold change: inactive: 0.379
[7]
  log2 fold change: inactive: 0.284
encorafenib
  log2 fold change: inactive: 0.161

## ANAPC2 (UniProt Q9UJX6)
[1]
  log2 fold change: inactive: -0.071
volasertib
  log2 fold change: active: -0.338
[2]
  log2 fold change: inactive: 0.023
epoxomicin
  log2 fold change: inactive: -0.031
[9]
  log2 fold change: inactive: -0.018
[4]
  log2 fold change: inactive: 0.004
[5]
  log2 fold change: inactive: 0.03
[10]
  log2 fold change: inactive: -0.001
saracatinib
  log2 fold change: inactive: -0.003
sotrastaurin
  log2 fold change: inactive: -0.084
Tubastatin A
  log2 fold change: inactive: 0.009
[6]
  log2 fold change: inactive: -0.011
defactinib
  log2 fold change: inactive: -0.049
rucaparib
  log2 fold change: inactive: 0.027
[7]
  log2 fold change: inactive: -0.063
encorafenib
  log2 fold change: inactive: 0.124
[8]
  log2 fold change: inactive: 0.006

## APOBEC3D (UniProt Q96AK3)
[1]
  log2 fold change: inactive: 0.023
volasertib
  log2 fold change: inactive: 0.259
epoxomicin
  log2 fold change: inactive: -0.189
[3]
  log2 fold change: inactive: 0.002
[4]
  log2 fold change: inactive: -0.118
rosiglitazone
  log2 fold change: inactive: -0.118
[5]
  log2 fold change: inactive: 0.266
saracatinib
  log2 fold change: inactive: -0.022
sotrastaurin
  log2 fold change: inactive: 0.05
alvocidib
  log2 fold change: inactive: 0.176
Tubastatin A
  log2 fold change: inactive: 0.104
[6]
  log2 fold change: inactive: 0.052
defactinib
  log2 fold change: inactive: 0.302
rucaparib
  log2 fold change: inactive: 0.302
[7]
  log2 fold change: inactive: 0.064
encorafenib
  log2 fold change: inactive: 0.156
[8]
  log2 fold change: inactive: 0.042

## AP2S1 (UniProt P53680)
[1]
  log2 fold change: inactive: 0.035
volasertib
  log2 fold change: inactive: 0.018
[2]
  log2 fold change: inactive: -0.024
epoxomicin
  log2 fold change: inactive: -0.022
[9]
  log2 fold change: inactive: -0.008
[4]
  log2 fold change: inactive: -0.071
[5]
  log2 fold change: inactive: -0.005
[10]
  log2 fold change: inactive: 0.037
saracatinib
  log2 fold change: inactive: 0.012
sotrastaurin
  log2 fold change: inactive: 0.009
Tubastatin A
  log2 fold change: inactive: 0.009
[6]
  log2 fold change: inactive: 0.077
defactinib
  log2 fold change: inactive: 0.038
rucaparib
  log2 fold change: inactive: 0.019
[7]
  log2 fold change: inactive: -0.012
encorafenib
  log2 fold change: inactive: 0.077
[8]
  log2 fold change: inactive: 0.025

## ARFIP1 (UniProt P53367)
[1]
  log2 fold change: inactive: -0.008
volasertib
  log2 fold change: inactive: -0.184
[2]
  log2 fold change: inactive: 0.113
epoxomicin
  log2 fold change: inactive: -0.003
[9]
  log2 fold change: inactive: 0.083
[4]
  log2 fold change: inactive: -0.011
[5]
  log2 fold change: inactive: -0.053
[10]
  log2 fold change: inactive: -0.421
saracatinib
  log2 fold change: inactive: 0.043
sotrastaurin
  log2 fold change: inactive: -0.037
Tubastatin A
  log2 fold change: inactive: 0.047
[6]
  log2 fold change: active: -0.351
defactinib
  log2 fold change: inactive: -0.08
rucaparib
  log2 fold change: inactive: -0.086
[7]
  log2 fold change: inactive: 0.075
encorafenib
  log2 fold change: inactive: -0.01
[8]
  log2 fold change: inactive: 0.163

## APOB (UniProt P04114)
[1]
  log2 fold change: inactive: -0.235
volasertib
  log2 fold change: inactive: -0.104
[2]
  log2 fold change: inactive: -0.227
epoxomicin
  log2 fold change: inactive: -0.056
[9]
  log2 fold change: inactive: 0.048
[4]
  log2 fold change: inactive: 0.014
[5]
  log2 fold change: inactive: 0.116
[10]
  log2 fold change: inactive: -0.354
saracatinib
  log2 fold change: inactive: -0.139
sotrastaurin
  log2 fold change: inactive: -0.17
Tubastatin A
  log2 fold change: inactive: -0.021
[6]
  log2 fold change: inactive: 0.012
defactinib
  log2 fold change: inactive: 0.05
rucaparib
  log2 fold change: inactive: -0.197
[7]
  log2 fold change: inactive: -0.364
encorafenib
  log2 fold change: inactive: 0.04
[8]
  log2 fold change: inactive: -0.005

## APOH (UniProt P02749)
[1]
  log2 fold change: inactive: -0.397
volasertib
  log2 fold change: inactive: -0.443
[2]
  log2 fold change: inactive: -0.167
[9]
  log2 fold change: inactive: 0.078
[4]
  log2 fold change: inactive: -0.141
[5]
  log2 fold change: inactive: 0.48
[10]
  log2 fold change: inactive: 0.077
saracatinib
  log2 fold change: inactive: 0.097
sotrastaurin
  log2 fold change: inactive: 0.317
Tubastatin A
  log2 fold change: inactive: -0.128
[6]
  log2 fold change: inactive: -0.032
defactinib
  log2 fold change: inactive: -0.042
rucaparib
  log2 fold change: inactive: -0.13
[7]
  log2 fold change: inactive: -0.391
encorafenib
  log2 fold change: inactive: 0.041
[8]
  log2 fold change: inactive: -0.021
